PubChem BioAssay AID1259254 – NCATS – 2017
Here is a random part of about 59,000 deposited reagents. Of all reagents, about 1,550 (2.6%) were called active. 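G2 share is only a proxy for re-replication; each gene was hit by three separate siRNAs, and active genes were retested.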 The raw values are shown without normalisation. Unmarked entries are inactive. The numbers tell different reagents against one gene apart. The record does not give: the amount of reagent.

- Test: 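Gene knock-downs that lead to re-replication, shown by excess G2 DNA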 (primary screen)
- System: human HCT116 colorectal cancer cells
- Reagents: single siRNA against human genes
- Time to read-out: 3 days
- Detection: 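Nuclei stained with Hoechst and imaged; cell-cycle phase assigned by DNA content; G2 share scaled per plate, non-targeting siRNA 0%, GMNN siRNA 100%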
- Reading the numbers: G2 robust z-score and G2 cells, % of GMNN control: higher = more G2 cells, more excess DNA replication; raw share of cells in G2: higher = larger share of cells with G2 DNA content
- Active means: 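An siRNA counts as active if its G2 robust z-score lies at least 5 MADs above the screen median; here such calls match roughly 38% of GMNN control or more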

Gene	reagent no.	G2 robust z-score	G2 cells, % of GMNN control	raw share of cells in G2 (%)
RPS3 (ribosomal protein S3)	1	2.78	22.5	14.6
RPS3 (ribosomal protein S3)	2	1.95	16.7	10.8
RPS3 (ribosomal protein S3)	3	4.11	31.8	14.9
FGD5 (FYVE, RhoGEF and PH domain containing 5)	1	-0.168	1.78	6.81
FGD5 (FYVE, RhoGEF and PH domain containing 5)	2	-0.752	-2.33	3.72
FGD5 (FYVE, RhoGEF and PH domain containing 5)	3	7.13 (active)	53.1	24.1
NEK11 (NIMA related kinase 11)	1	-0.306	0.816	5.84
NEK11 (NIMA related kinase 11)	2	-0.229	1.36	5.68
NEK11 (NIMA related kinase 11)	3	-0.175	1.74	4.24
HDAC8 (histone deacetylase 8)	1	-1.07	-4.59	4.42
HDAC8 (histone deacetylase 8)	2	-0.141	1.97	5.15
HDAC8 (histone deacetylase 8)	3	1.37	12.6	9.6
LOC729995 (retired record)	1	-0.801	-2.67	3.04
LOC729995 (retired record)	2	-0.481	-0.418	3.08
LOC729995 (retired record)	3	-0.345	0.542	3.37
CDKL2 (cyclin dependent kinase like 2)	1	2.84	22.9	12.7
CDKL2 (cyclin dependent kinase like 2)	2	-0.986	-3.97	3.75
CDKL2 (cyclin dependent kinase like 2)	3	-0.74	-2.24	2.97
KIF26B (kinesin family member 26B)	1	-0.0801	2.4	5.34
KIF26B (kinesin family member 26B)	2	-0.656	-1.65	5.71
KIF26B (kinesin family member 26B)	3	-1.06	-4.52	2.82
OAZ2 (ornithine decarboxylase antizyme 2)	1	-0.00843	2.91	5.93
OAZ2 (ornithine decarboxylase antizyme 2)	2	-0.313	0.764	3.46
OAZ2 (ornithine decarboxylase antizyme 2)	3	1.91	16.4	11.4
PRDM6 (PR/SET domain 6)	1	-0.654	-1.64	3.39
PRDM6 (PR/SET domain 6)	2	-0.0682	2.49	3.78
PRDM6 (PR/SET domain 6)	3	2.2	18.4	8.76
SLC25A25	1	-0.14	1.98	6.59
SLC25A25	2	0.92	9.44	9.02
SLC25A25	3	0.189	4.3	6.1
LAMA5 (laminin subunit alpha 5)	1	-0.812	-2.74	2.37
LAMA5 (laminin subunit alpha 5)	2	1.46	13.2	11
LAMA5 (laminin subunit alpha 5)	3	-0.257	1.16	3.53
IL20 (interleukin 20)	1	-0.346	0.536	4.06
IL20 (interleukin 20)	2	0.192	4.32	6.18
IL20 (interleukin 20)	3	-0.0202	2.83	4.14
GJA1 (gap junction protein alpha 1)	1	1.98	16.9	10.2
GJA1 (gap junction protein alpha 1)	2	-0.493	-0.504	4.61
GJA1 (gap junction protein alpha 1)	3	0.389	5.7	5.18
DLEU1 (deleted in lymphocytic leukemia 1)	1	0.41	5.85	4.9
DLEU1 (deleted in lymphocytic leukemia 1)	2	-0.22	1.42	4.31
DLEU1 (deleted in lymphocytic leukemia 1)	3	0.349	5.42	5.24
HEBP1 (heme binding protein 1)	1	2.94	23.7	12.9
HEBP1 (heme binding protein 1)	2	-0.0756	2.44	5.47
HEBP1 (heme binding protein 1)	3	-0.227	1.37	3.68
CD151 (CD151 molecule (Raph blood group))	1	0.448	6.12	7.23
CD151 (CD151 molecule (Raph blood group))	2	0.645	7.5	6.68
CD151 (CD151 molecule (Raph blood group))	3	1.57	14	9.96
CLVS2 (clavesin 2)	1	-0.57	-1.04	3.78
CLVS2 (clavesin 2)	2	0.52	6.63	5.2
CLVS2 (clavesin 2)	3	-0.384	0.266	2.68
ADGB (androglobin)	1	-0.798	-2.65	3.35
ADGB (androglobin)	2	0.169	4.16	6.12
ADGB (androglobin)	3	-0.388	0.236	2.44
RALA (RAS like proto-oncogene A)	1	0.853	8.97	7.13
RALA (RAS like proto-oncogene A)	2	-0.032	2.74	5.92
RALA (RAS like proto-oncogene A)	3	1.48	13.4	9.78

11 neighbouring records from above, for reference:
Gene	reagent no.	G2 robust z-score	G2 cells, % of GMNN control	raw share of cells in G2 (%)
RPS3 (ribosomal protein S3)	3	4.11	31.8	14.9
FGD5 (FYVE, RhoGEF and PH domain containing 5)	1	-0.168	1.78	6.81
FGD5 (FYVE, RhoGEF and PH domain containing 5)	2	-0.752	-2.33	3.72
FGD5 (FYVE, RhoGEF and PH domain containing 5)	3	7.13 (active)	53.1	24.1
NEK11 (NIMA related kinase 11)	1	-0.306	0.816	5.84
NEK11 (NIMA related kinase 11)	2	-0.229	1.36	5.68
NEK11 (NIMA related kinase 11)	3	-0.175	1.74	4.24
HDAC8 (histone deacetylase 8)	1	-1.07	-4.59	4.42
HDAC8 (histone deacetylase 8)	2	-0.141	1.97	5.15
HDAC8 (histone deacetylase 8)	3	1.37	12.6	9.6
LOC729995 (retired record)	1	-0.801	-2.67	3.04

The list goes on:
Gene	reagent no.	G2 robust z-score	G2 cells, % of GMNN control	raw share of cells in G2 (%)
ZNF233 (zinc finger protein 233)	1	5.22 (active)	39.7	16.7
ZNF233 (zinc finger protein 233)	2	3.3	26.2	12.3
ZNF233 (zinc finger protein 233)	3	0.372	5.58	5.48
FBXO31 (F-box protein 31)	1	-0.11	2.2	5.36
FBXO31 (F-box protein 31)	2	0.345	5.39	6.66
FBXO31 (F-box protein 31)	3	-0.588	-1.17	2.06
ATAD2B (ATPase family AAA domain containing 2B)	1	-0.905	-3.4	2.5
ATAD2B (ATPase family AAA domain containing 2B)	2	-1.18	-5.33	3.54
ATAD2B (ATPase family AAA domain containing 2B)	3	-0.66	-1.68	3.62
STK35 (serine/threonine kinase 35)	1	-0.843	-2.96	4.67
STK35 (serine/threonine kinase 35)	2	1.61	14.3	10.4
STK35 (serine/threonine kinase 35)	3	-0.945	-3.68	2.5
SERF1A (small EDRK-rich factor 1A)	1	0.0925	3.62	5.64
SERF1A (small EDRK-rich factor 1A)	2	0.569	6.97	5.72
SERF1A (small EDRK-rich factor 1A)	3	0.394	5.74	5.34
KMT2E (lysine methyltransferase 2E (inactive))	1	2.06	17.5	11.2
KMT2E (lysine methyltransferase 2E (inactive))	2	4.52	34.8	21.1
KMT2E (lysine methyltransferase 2E (inactive))	3	-0.633	-1.49	2.56
WNT16 (Wnt family member 16)	1	-1.55	-7.93	0.763
WNT16 (Wnt family member 16)	2	1.95	16.7	11.3
WNT16 (Wnt family member 16)	3	0.925	9.48	6.32
TRAIP (TRAF interacting protein)	1	7.9 (active)	58.5	22.8
TRAIP (TRAF interacting protein)	2	0.42	5.92	8.27
TRAIP (TRAF interacting protein)	3	13.3 (active)	96.5	44.5
PWP2 (PWP2 small subunit processome component)	1	0.843	8.9	8.76
PWP2 (PWP2 small subunit processome component)	2	-0.62	-1.39	3.67
PWP2 (PWP2 small subunit processome component)	3	1.71	15	8.77
THUMPD3 (THUMP domain 3 tRNA guanosine methyltransferase)	1	0.0901	3.6	5.77
THUMPD3 (THUMP domain 3 tRNA guanosine methyltransferase)	2	2.06	17.4	11.5
THUMPD3 (THUMP domain 3 tRNA guanosine methyltransferase)	3	3.21	25.5	12.2
